# Data: PubChem BioAssay AID540352 (National Center for Advancing Translational Sciences (NCATS), 2011)
# This list was built around the results that the source calls inconclusive (neither active nor inactive); the mix of calls is not that of the screen. Where the call is inconclusive, the potency comes from a doubtful curve fit. Calls of active or inactive are those of the source. The call rests on the fitted dose curve; in most records, active means well fitted inhibition curve with a large enough effect; inconclusive means small, poorly fitted or top-dose-only effect; inactive means no such curve, though single readings can be large or run the other way.
# Assay: qHTS for Inhibitos of Bacillus subtilis Sfp phosphopantetheinyl transferase (PPTase): Chemistry Optimization Followup in B. Subtilis 168
# Conditions: B. subtilis 168 growth, BacTiter-Glo luminescence, 5 h; series mostly up to 114 µM; activity change, negative = inhibition: at the top concentration
# Source text: Phosphopantetheinyl transfer is a process essential to cellular viability and maintenance. Cell-permeable and stable compounds acting as PPTase inhibitors are anticipated to be antimicrobial agents in organisms with complimenting genotypes. […] This experiment evaluated a series of test compounds for antimicrobial activity with B. subtilis 168 (genotype: acpS+ and sfp-), a strain that contains a frameshift mutation in the sfp locus and thus requires a functional AcpS gene product for viability. [Mootz HD, 2001] This strain is expected to be sensitized to cell-permeable AcpS inhibitors, and insensitive to Sfp inhibitors. NIH Chemical Genomics Center [NCGC] NIH Molecular Libraries Probe Centers Network [MLPCN] MLPCN Grant: MH083266-01 Assay Submitter (PI): Michael Burkart, University of California, San Diego
# Innoculum preparation. Bacillus subtilis 168 is maintained on lysogeny broth (LB) solidified by the addition of 1.5% w/v agar. Single colonies were used to LB medium (2 mL) and shaken overnight at 30 masculineC. In the morning, this culture (100 ul) was used to seed a fresh LB medium (10 mL) and was shaken at 30 masculineC until the culture OD600 reached 0.5. This culture was diluted 1:100 in fresh LB medium to provide the inoculum below. Bacterial susceptibility. LB medium (2 uL) is dispensed into wells of a sterile white 1536-well plate. Test compounds (23 nL) prepared as serial dilutions in DMSO are added to the plate by pintool transfer. Innoculum (2 uL) is added, the plates are covered with a vented Kalypsys assay lid and incubated at 30 masculineC. After 5 h, Bac-Titer Glo (4 uL; Promega Corp, Madison, WI) is added to the plates. They are incubated 10 minutes at room temperature and then the luminescence detected in a ViewLux multimodal plate reader.
Structure (SMILES),Potency,"activity change, negative = inhibition"
Cc1cc(C)nc(NC(=S)N2CCN(c3ccc(Cl)c(Cl)c3)CC2)c1,"inconclusive: 14.8 µM [inhibitor, full curve]",
Cc1ccnc(NC(=S)N2CCN(c3cccc(C(F)(F)F)c3)C[C@@H]2C)c1,"inconclusive: 46.9 µM [inhibitor, partial curve]",
Cc1cc(C)nc(NC(=S)N2CCN(c3ccc4c(c3)OCO4)CC2)c1,"inconclusive: 46.9 µM [inhibitor, partial curve]",
Cc1cc(C)nc(NC(=S)N2CCN(c3ccc4occc4c3)CC2)c1,"inconclusive: 29.6 µM [inhibitor, partial curve]",
FC(F)(F)c1cccc(N2CCN(C(=S)Nc3cnccn3)CC2)c1,"inconclusive: 59.1 µM [inhibitor, partial curve, poor fit]",
FC(F)(F)c1cccc(N2CCN(C(=S)Nc3cc4ccccc4cn3)CC2)c1,"inconclusive: 41.8 µM [inhibitor, partial curve]",
COc1cccc(NC(=S)N2CCN(c3ccc(Cl)cc3Cl)CC2)n1,"inconclusive: 11.8 µM [inhibitor, full curve]",
Cc1cc(C)nc(NC(=S)N2CCN(c3cc(C(F)(F)F)cc(C(F)(F)F)c3)CC2)c1,"inconclusive: 2.64 µM [inhibitor, partial curve, poor fit]",
COc1cccc(NC(=S)N2CCN(c3cccc(Cl)c3Cl)CC2)n1,"inconclusive: 10.5 µM [inhibitor, full curve]",
Cc1cc(C)nc(NC(=S)N2CCN(c3ccc(Cl)cc3F)CC2)c1,active: 23.5 µM,
Cc1cc(C)nc(NC(=S)N2CCN(c3ccc(NS(C)(=O)=O)nn3)CC2)c1,"inconclusive: 46.9 µM [inhibitor, partial curve, poor fit]",
COc1cccc(NC(=S)N2CCN(c3cccc(C(F)(F)F)c3)CC2)n1,"inconclusive: 41.8 µM [inhibitor, partial curve]",
Cc1ccnc(NC(=S)N2CCN(c3ccc(N)cc3)CC2)c1,,inactive: -18.5%
COc1cccc(NC(=S)N2CCN(c3cc(C(F)(F)F)cc(C(F)(F)F)c3)CC2)n1,,inactive: -7.94%
Cc1cc(C)nc(NC(=S)N2CCN(c3ccc(Cl)cc3C(F)(F)F)CC2)c1,active: 9.37 µM,
Cc1cc(C)nc(NC(=S)N2CCN(c3ccsc3)CC2)c1,"inconclusive: 66.3 µM [inhibitor, partial curve, poor fit]",
Cc1cc(C)nc(NC(=S)N2CCN(c3ccc4ncccc4c3[N+](=O)[O-])CC2)c1,"inconclusive: 29.6 µM [inhibitor, partial curve, poor fit]",
Cc1cc(C)nc(NC(=S)N2CCN(c3ccc4nonc4c3)CC2)c1,"inconclusive: 93.7 µM [inhibitor, partial curve, poor fit]",
Cc1ccnc(NC(=S)NCCN(C)c2cccc(C(F)(F)F)c2)c1,,inactive: -19.2%
Cc1cc(C)nc(NC(=S)N2CCN(c3ccc4nncn4c3)CC2)c1,,inactive: -15.5%

# Individual results from the results shown:
# FC(F)(F)c1cccc(N2CCN(C(=S)Nc3cnccn3)CC2)c1 | Potency: inconclusive: 59.1 µM [inhibitor, partial curve, poor fit]
# COc1cccc(NC(=S)N2CCN(c3cc(C(F)(F)F)cc(C(F)(F)F)c3)CC2)n1 | activity change, negative = inhibition: inactive: -7.94%

# (listing goes on)

Structure (SMILES),Potency,"activity change, negative = inhibition"
Cc1ccnc(NC(=S)N2CCN(c3cccc(C(F)(F)F)c3)C2)c1,,inactive: -10.5%
FC(F)(F)c1cccc(N2CCN(C(=S)Nc3ccc4ccccc4n3)CC2)c1,"inconclusive: 26.4 µM [inhibitor, partial curve, poor fit]",
Cc1cc(C)nc(NC(=S)N2CCN(c3ncccc3C#N)CC2)c1,,inactive: -10.9%
Cc1cc(C)nc(NC(=S)N2CCN(c3cncs3)CC2)c1,active: 46.9 µM,
COc1cccc(NC(=S)N2CCN(c3cc(Cl)cc(Cl)c3)CC2)n1,,inactive: -1.53%
Cc1ccnc(CC(=S)N2CCN(c3cccc(C(F)(F)F)c3)CC2)c1,"inconclusive: 11.8 µM [inhibitor, full curve]",
Cc1ccnc(NC(=S)N[C@@H]2CCN(c3cccc(C(F)(F)F)c3)C2)c1,"inconclusive: 37.3 µM [inhibitor, partial curve]",
Cc1ccnc(N=C(N)N2CCN(c3cccc(C(F)(F)F)c3)CC2)c1,"inconclusive: 74.4 µM [inhibitor, partial curve, poor fit]",
Cc1ccnc(NC(=S)N2CCN(c3cc(F)cc(Cl)c3)CC2)c1,active: 5.91 µM,
Cc1ccnc(N(C)C(=S)N2CCN(c3cccc(C(F)(F)F)c3)CC2)c1,"inconclusive: 52.7 µM [inhibitor, partial curve]",
Cc1cc(C)nc(NC(=S)N2CCN(S(=O)(=O)c3cccc(C(F)(F)F)c3)CC2)c1,"inconclusive: 74.4 µM [inhibitor, partial curve]",
Cc1cc(C)nc(NC(=S)N2CCN(c3nccc(C(F)(F)F)n3)CC2)c1,"inconclusive: 9.37 µM [inhibitor, full curve]",
Cc1ccnc(NC(=S)NCCNc2cccc(C(F)(F)F)c2)c1,"inconclusive: 11.8 µM [inhibitor, full curve, poor fit]",
COc1ccc(N2CCN(C(=S)Nc3cc(C)ccn3)CC2)cc1,"inconclusive: 52.7 µM [inhibitor, partial curve]",
Cc1ccnc(NC(=O)N2CCN(c3cccc(C(F)(F)F)c3)CC2)c1,"inconclusive: 74.4 µM [inhibitor, partial curve, poor fit]",
Cc1cc(C)nc(NC(=S)N2CCN(c3cccc(C(F)(F)F)c3)CC2)c1,"inconclusive: 16.7 µM [inhibitor, full curve]",
Cc1cc(C)nc(NC(=C(C#N)C#N)N2CCN(c3cccc(C(F)(F)F)c3)CC2)c1,"inconclusive: 52.7 µM [inhibitor, partial curve]",
Cc1cc(C)nc(NC(=S)N2CCN(c3ccc(N4CCCC4)nn3)CC2)c1,"inconclusive: 46.9 µM [inhibitor, partial curve, poor fit]",
COc1ccc(NC(=S)N2CCN(c3cccc(C(F)(F)F)c3)CC2)nc1,,inactive: -22%
Cc1cc(C)nc(NC(=S)N2CCN(C3=Nc4ccccc4Oc4ccccc43)CC2)c1,"inconclusive: 59.1 µM [inhibitor, partial curve]",
